These results are taken from article doi:10.1101/2024.11.03.621741.

The test system of series [1] is yeast Ku (yeast). Briefly: EMSA. As to conditions: positive control for dsDNA binding; recombinant protein.
Series [2] deals with RPA heterotrimer (human). As to the kind of experiment: EMSA. Conditions: positive control for ssDNA binding.

For at least one entry, the source does not settle the construct or the ends of the probe. At least one verdict was read from the data and is not stated in words by the source.

Turning to “TGGGTCAACGTGGGCAAAGATGTCCTAGCAATGTAATCGTCTATGACGTT (double strand) [PC1253/PC1253c dsDNA]”, in series [1], the binding result is listed as “binds”.

Turning to “TGGGTCAACGTGGGCAAAGATGTCCTAGCAATGTAATCGTCTATGACGTT [PC1253 ssDNA]”, in series [2], the binding result is “binds”.
